AC50 and cell number change data for 38 compounds are collected here from PubChem BioAssay AID2685 (National Center for Advancing Translational Sciences (NCATS), 2010).

The test can be described thus: qHTS Assay for Lipid Storage Modulators in Drosophila S3 Cells.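 For cell number change: cells counted by Cell Tracker Red CMTPX staining in the red channel.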 The note with it: BODIPY lipid droplet fluorescence, 18-24 h; for cell number change: measured here: cell count max response, cells fed with added oleic acid. The procedure, abridged: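 Drosophila S3 cells loaded with oleic acid (400 uM, as added) and compounds at several concentrations; lipid droplets imaged by 488-nm laser-scanning cytometry, 500–530 nm intensity and object ratio to cell channel. Percent activity normalized to 20 uM Triacsin C.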

The mark [1] stands for this setting: measured here: cell number channel AC50, cells fed with added oleic acid.
[2] abbreviates: measured here: lipid fluorescence (Fed channel) AC50, cells fed with added oleic acid.

Each structure is given as a SMILES string. The list shows a part of the results. Shown are side measurements of this screen, not its main read-out; they come without a call. Compounds called inactive in the main read-out are mostly missing here. Words in brackets tell the shape of the fitted curve; partial curves, single points and poor fits give uncertain potencies.

For orientation: AC50 means the concentration giving half of the maximal activity seen. A lower AC50 goes with greater potency.

On to `CS(=O)(=O)N(CC(=O)Nc1cc(Cl)ccc1Cl)c1ccccc1Cl`, for which the AC50 is, setting by setting: under setting [1], 2.06 µM [rising, partial curve]; under setting [2], 18.4 µM [rising, partial curve].

As to `Cc1ccc(C(Sc2ccccc2)C(Cn2cncn2)C(=O)c2ccccc2)cc1` (centres undefined), the cell number change was 1.74%.

On to `COc1cccc(CNC(=O)COc2cc(O)c3c(c2)OC(C)(C)CC3=O)c1`, for which the cell number change was -0.971%.

For the compound `Cc1nn(CC2CC2)c(=O)n1-c1ccccc1F`, the cell number change was -53.3%. The AC50 under setting [1] is 0.517 µM [falling, full curve]. Further, the AC50 under setting [2] is 13 µM [falling, partial curve].

For `C[C@@H](C(=O)Nc1nc(-c2ccccn2)cs1)N1C(=O)C2CCCCC2C1=O` (some centres undefined), the cell number change is -10.7%. Under setting [1], the AC50 was 1.46 µM [rising, full curve, poor fit].

As for `NS(=O)(=O)c1ccc(NC(=O)COC(=O)CCNC(=O)NC23CC4CC(CC(C4)C2)C3)cc1`, the cell number change turned out to be 1.45%. For the same compound, the AC50 under setting [2] is 0.116 µM [falling, single point].

As to `COc1ccc(OC)c(NC(=O)Nc2nnc(N3CCC(C)CC3)s2)c1`, the AC50 under setting [2] was 9.2 µM [rising, partial curve].

For the compound `COc1ccc(S(=O)(=O)Cc2ccc(C(=O)NCc3ccc(F)cc3)o2)cc1`, the cell number change is -6.36%. Besides, the AC50 under setting [2] was 0.291 µM [rising, partial curve, poor fit].

Take `COc1ccc(OC)c(-c2nc3c(C)n[nH]c(=O)c3[nH]2)c1`: the concentration at half-maximal activity (AC50) under setting [2] is 0.82 µM [rising, single point].

For the compound `CCOC(=O)c1cccc(NC(=O)C2CCN(S(=O)(=O)c3cnc[nH]3)CC2)c1`, the cell number change is 11.2%.

Consider `O=C(CCn1nc(-c2ccccc2)ccc1=O)NCCCN1CCCCCC1`, for which the cell number change is 40.3%. Moreover, the AC50 under setting [1] is 0.291 µM [rising, full curve, poor fit].

Regarding `O=C(NC(NC(=S)Nc1ccccc1Cl)C(Cl)(Cl)Cl)c1cccc(Cl)c1` (centres undefined), the cell number change is -20.3%. Besides, under setting [2], the AC50 is 29.1 µM [falling, single point].

Regarding `O=C(Nc1cccc(NC(=O)c2cccs2)c1)c1ccco1`, the cell number change was -11.4%. Moreover, the AC50 under setting [2] is 6.51 µM [rising, single point].

In the case of `CCOc1ccc(NC(=O)NCc2ccco2)cc1`, the cell number change came to 22.5%. In addition, under setting [2], the AC50 is 0.206 µM [rising, full curve, poor fit].

For `Cc1cccc(N2CCN(CC(=O)Nc3nccs3)CC2)c1C`, the cell number change stood at 13.1%. The half-maximal activity concentration (AC50) under setting [1] is 2.59 µM [rising, single point].

Regarding `CN1CCN(C(c2ccc(C(F)(F)F)cc2)c2ccc3cccnc3c2O)CC1` (centres undefined), the cell number change was -33.3%. For the same compound, the AC50 under setting [1] was 0.206 µM [falling, full curve, poor fit].

`CCc1ccc(NC(=O)c2sccc2-n2cccc2)cc1`: the cell number change is 59.2%. Moreover, the AC50 under setting [1] is 9.2 µM [rising, partial curve]. Besides, under setting [2], the AC50 is 2.59 µM [rising, partial curve].

Turning to `O=C(CCN1C(=O)/C(=C/c2ccccc2Cl)SC1=S)NNC(=O)c1ccccc1O`, the cell number change was 17.6%. The AC50 under setting [2] was 6.51 µM [falling, single point].

For the compound `CCN(c1ccccc1)S(=O)(=O)c1ccc(Cl)c(NC(=O)CN2C(=O)NC3(CCCC3)C2=O)c1`, the cell number change came to 14.1%. For the same compound, under setting [2], the AC50 was 18.4 µM [rising, single point].

As to `O=C(N/N=C1\CCc2ccccc21)c1ccc(O)cc1`, the cell number change was determined as 4.92%.

Consider `O=C(COc1ccccc1F)NC1CCN(Cc2ccccc2)CC1`, for which the cell number change is -47.5%. Moreover, under setting [1], the AC50 was 13 µM [falling, partial curve]. Besides, the AC50 under setting [2] was 7.31 µM [falling, single point].

Take `CCOc1ccc(S(=O)(=O)Nc2cc(Cl)ccc2O)cc1`: the cell number change was -102%. Moreover, the AC50 under setting [2] is 29.1 µM [falling, single point].

Turning to `CCCCOC(=O)C[N+](C)(C)CCOC1CC2CCC1(C)C2(C)C` (centres undefined), the cell number change is -33.9%. Under setting [1], the AC50 is 29.1 µM [falling, single point]. Besides, the AC50 under setting [2] is 18.4 µM [falling, single point].

Turning to `CC(C)(C)c1ccc(CSc2nc(N)cc(=O)[nH]2)cc1`, the cell number change is -60.4%. Under setting [1], the AC50 was 20.6 µM [falling, partial curve]. Besides, under setting [2], the AC50 is 10.3 µM [falling, partial curve].

`O=C(c1c(F)cccc1F)N(Cc1ccccc1)Cc1ccccc1`: the cell number change is 8.7%. Moreover, the AC50 under setting [2] is 29.1 µM [falling, single point].

In the case of `CCN(CC)S(=O)(=O)c1cc(C)c(C)cc1OCC(=O)NC1CCCC1`, the cell number change was -9.93%. Under setting [2], the AC50 was 6.51 µM [rising, single point].

In the case of `CC1(C)CC(NC(=O)c2ccc(Cl)c(S(=O)(=O)N(Cc3ccccc3)c3ccccc3)c2)CC(C)(C)N1`, the cell number change was -7.72%. For the same compound, under setting [2], the AC50 is 0.82 µM [falling, full curve].

Turning to `COc1ccc(N2CCN(C(=O)COC(=O)CSc3ccccc3)CC2)cc1`, the cell number change stood at 132%. Further, under setting [1], the AC50 was 20.6 µM [rising, single point]. The half-maximal activity concentration (AC50) under setting [2] was 6.51 µM [falling, single point].

With `CCN(CC)C(=O)NC1CCCCCCC1`, the cell number change stood at 20.6%.

`CCCN(C(=O)CSc1nnnn1C)C1CCS(=O)(=O)C1` (centres undefined): the cell number change is 22.7%. Moreover, the AC50 under setting [2] is 6.51 µM [rising, single point].

`COc1ccc(C2CC(=O)C(C=NCCN3CCN(C(C)=O)CC3)=C(O)C2)cc1` (centres undefined): the cell number change is -0.231%. Further, the AC50 under setting [2] is 0.731 µM [falling, single point].

`O=C(/C=C/c1ccncc1)c1ccc2c(c1)OCCO2`: the cell number change is -61.7%. Under setting [1], the AC50 was 23.1 µM [falling, single point]. Besides, under setting [2], the AC50 is 20.6 µM [falling, partial curve].

As for `NC1=NC(=O)/C(=C/c2ccsc2)S1`, under setting [2], the concentration at half-maximal activity (AC50) is 18.4 µM [rising, single point].

For `O=C(COC(=O)c1ccc(S(=O)(=O)N2CCCC2)cc1)Nc1cccc(F)c1`, the cell number change came to 4.89%. For the same compound, under setting [2], the AC50 is 4.11 µM [falling, single point].

As for `O=C(N/N=C\c1ccc[nH]1)C1COc2ccccc2O1` (centres undefined), the AC50 under setting [2] is 6.51 µM [falling, single point].

With `O=C(Nc1nc(-c2ccco2)c(-c2ccco2)s1)C1CCC1`, the cell number change worked out at 8.11%.

As for `CN1C(=O)C(O)(CC(=O)/C=C/c2ccco2)c2cc(Br)ccc21` (centres undefined), the cell number change is 2.11%. For the same compound, the AC50 under setting [2] is 2.91 µM [falling, single point].

Take `COc1cc2c(-c3ccc4cc[nH]c4c3)c(-c3ccc(C#N)cc3)oc(=O)c2cc1OC`: the cell number change is -22.1%. Moreover, the AC50 under setting [1] was 0.82 µM [falling, full curve, poor fit]. Under setting [2], the AC50 is 0.82 µM [falling, partial curve, poor fit].
